In publication PMC12390733:

Target: His-tagged SARS-CoV-2 NSP3 (SARS-CoV-2) (UniProt P0DTD1)
Assay: affinity purification with mass spectrometry

B1: DNAJC11 identified by mass spectrometry (HEK-293T cells) (protein, UniProt Q9NVH1 1-559)
chain: MATALSEEELDNEDYYSLLNVRREASSEELKAAYRRLCMLYHPDKHRDPELKSQAERLFNLVHQAYEVLSDPQTRAIYDIYGKRGLEMEGWEVVERRRTPAEIREEFERLQREREERRLQQRTNPKGTISVGVDATDLFDRYDEEYEDVSGSSFPQIEINKMHISQSIEAPLTATDTAILSGSLSTQNGNGGGSINFALRRVTSAKGWGELEFGAGDLQGPLFGLKLFRNLTPRCFVTTNCALQFSSRGIRPGLTTVLARNLDKNTVGYLQWRWGIQSAMNTSIVRDTKTSHFTVALQLGIPHSFALISYQHKFQDDDQTRVKGSLKAGFFGTVVEYGAERKISRHSVLGAAVSVGVPQGVSLKVKLNRASQTYFFPIHLTDQLLPSAMFYATVGPLVVYFAMHRLIIKPYLRAQKEKELEKQRESAATDVLQKKQEAESAVRLMQESVRRIIEAEESRMGLIIVNAWYGKFVNDKSRKSEKVKVIDVTVPLQCLVKDSKLILTEASKAGLPGFYDPCVGEEKNLKVLYQFRGVLHQVMVLDSEALRIPKQSHRIDTDG
  binding: binds

No constants are given. Whether binding was seen depends on the method and setting. In cells and extracts the contact can be indirect. Here binding means that the protein was enriched with, or labelled near, the bait; the list need not be complete.
